# Values from PubChem BioAssay AID504764 (Drosophila RNAi Screening Center, 2011)
# Screen: 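Genes whose knock-down alters Notch-dependent transcription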 (primary screen)
# System: Drosophila Kc167 cells
# Reagent: long dsRNA against Drosophila genes
# Duration: about 5 days (4 days dsRNA, then 24 h after transfection)
# Conditions: transfection of constitutively active membrane-tethered Notch lacking the extracellular domain, read 24 h later
# Read-out: 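Firefly luciferase from an E(spl)m3 reporter with active Notch, plus control-promoter and uninduced reporter wells for normalisation; unnormalised counts, duplicate wells a and b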
# Scale: induced reporter light, run 1, well a and induced reporter light, run 1, well b: higher = more light from the Notch target reporter with active Notch; control promoter light, run 1, well a and control promoter light, run 1, well b: higher = more light from the viral control promoter (cell number, transfection, viability); uninduced reporter light, run 1, well a: higher = more light from the Notch target reporter without active Notch
# Hit rule: 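Wells with low control signal or poorly matching duplicates excluded; duplicates averaged; per source plate, z beyond ±2 for induced/control log2 ratio or beyond ±1.8 for induced/uninduced marks a hit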
# Meaning of the calls: active = modifier hit (raised or lowered Notch signal); inactive = not a hit
# The screen tested about 22,000 reagents; this is a random part of those with a known target gene and a result. In the full data, 403 (1.9%) were called active. 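Unnormalised raw counts per well; ratio z-scores behind the hit calls and whether each hit raises or lowers signal are not deposited.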 A plus sign joins genes that one reagent is predicted to hit. Not stated in the record: the amount of reagent.
Target gene,dsRNA,"induced reporter light, run 1, well a","induced reporter light, run 1, well b","control promoter light, run 1, well a","control promoter light, run 1, well b","uninduced reporter light, run 1, well a",Call
Coq2 (GeneID 40988),DRSC16516,1.10e5,99265,98150,89505,7680,inactive
ord (GeneID 37687),DRSC04706,2.22e5,2.32e5,2.47e5,2.41e5,17700,inactive
MED26 (GeneID 43816),DRSC17126,29315,38490,33745,32295,3085,inactive
MED26 (GeneID 43816),DRSC17147,1.28e5,1.20e5,2.98e5,3.86e5,8415,active
MED26 (GeneID 43816),DRSC17148,1.12e5,95840,1.95e5,1.96e5,12480,inactive
Yp3 (GeneID 32339),DRSC20302,58175,65485,86625,99010,13070,inactive
CG3604 (GeneID 33593),DRSC00618,1.81e5,1.50e5,2.18e5,2.09e5,12660,inactive
Pex6 + Hao,DRSC06097,1.55e5,1.54e5,1.39e5,1.56e5,11260,inactive
Pex6 + Hao,DRSC06704,1.77e5,1.53e5,2.03e5,2.25e5,16265,inactive
Ir25a (GeneID 33683),DRSC00462,1.50e5,1.39e5,1.22e5,1.30e5,8715,inactive
CG2854 (GeneID 31219),DRSC18595,1.13e5,1.21e5,1.79e5,1.48e5,8340,inactive
CG8520 (GeneID 36357),DRSC07206,93380,78230,79985,75255,7060,inactive
Teh1 (GeneID 41215),DRSC14544,1.36e5,1.03e5,72210,63360,10360,inactive
CG3701 (retired record) (GeneID 37568),DRSC04408,2.63e5,2.21e5,2.18e5,2.12e5,17970,inactive
CG3701 (retired record) (GeneID 37568),DRSC04409,2.54e5,2.39e5,2.29e5,2.05e5,17435,inactive
CG16888 (GeneID 34789),DRSC02541,1.75e5,1.62e5,1.87e5,2.13e5,15070,inactive
PlexA (GeneID 43832),DRSC17220,1.68e5,1.57e5,2.05e5,2.20e5,10450,inactive
pie (GeneID 44315),DRSC03590,1.91e5,1.88e5,1.80e5,2.03e5,15238,inactive
CG10560 (GeneID 43065),DRSC14256,1.45e5,1.39e5,2.24e5,1.94e5,13960,inactive
CG15431 (GeneID 33646),DRSC00446,1.77e5,1.65e5,1.49e5,1.66e5,12020,inactive

Quoted from the entries so far, 5 entries:
Target gene,dsRNA,"induced reporter light, run 1, well a","induced reporter light, run 1, well b","control promoter light, run 1, well a","control promoter light, run 1, well b","uninduced reporter light, run 1, well a",Call
Teh1 (GeneID 41215),DRSC14544,1.36e5,1.03e5,72210,63360,10360,inactive
CG3701 (retired record) (GeneID 37568),DRSC04408,2.63e5,2.21e5,2.18e5,2.12e5,17970,inactive
CG3701 (retired record) (GeneID 37568),DRSC04409,2.54e5,2.39e5,2.29e5,2.05e5,17435,inactive
CG16888 (GeneID 34789),DRSC02541,1.75e5,1.62e5,1.87e5,2.13e5,15070,inactive
PlexA (GeneID 43832),DRSC17220,1.68e5,1.57e5,2.05e5,2.20e5,10450,inactive

The results go on.
Target gene,dsRNA,"induced reporter light, run 1, well a","induced reporter light, run 1, well b","control promoter light, run 1, well a","control promoter light, run 1, well b","uninduced reporter light, run 1, well a",Call
Cpr78Cb (GeneID 40353),DRSC11847,1.47e5,1.15e5,1.15e5,1.25e5,6375,inactive
CG33679 (GeneID 3772494),DRSC01436,1.26e5,1.07e5,1.20e5,85080,12275,inactive
FMRFaR (GeneID 38357),DRSC08555,1.46e5,1.14e5,2.10e5,1.09e5,9010,inactive
CG13334 (GeneID 36510),DRSC06369,1.13e5,91265,1.04e5,1.09e5,8700,inactive
Obp69a (GeneID 39411),DRSC11247,1.62e5,1.45e5,3.18e5,2.96e5,10495,active
GstT2 (GeneID 246386),DRSC06244,2.32e5,1.87e5,2.29e5,2.47e5,14755,inactive
CG33159 (GeneID 318901),DRSC08199,1.70e5,1.68e5,2.17e5,2.35e5,12310,inactive
CG10055 (GeneID 40862),DRSC12503,1.32e5,1.14e5,1.03e5,85340,9962,inactive
FipoQ (GeneID 43475),DRSC15413,1.55e5,1.64e5,1.48e5,1.54e5,11045,inactive
CG30423 (GeneID 246605),DRSC04013,42950,53375,78690,64610,4545,inactive
CG17249 (GeneID 38201),DRSC08517,79465,85120,1.62e5,1.48e5,8300,inactive
CG44837 (GeneID 5740513),DRSC10133,51080,45455,93920,78420,4595,inactive
CG44837 (GeneID 5740513),DRSC10558,1.56e5,1.18e5,1.52e5,1.40e5,9425,inactive
Cdep (GeneID 40608),DRSC12028,1.74e5,1.96e5,2.02e5,2.23e5,18870,inactive
Cdep (GeneID 40608),DRSC12220,1.54e5,1.79e5,1.02e5,1.04e5,10120,inactive
Cdep (GeneID 40608),DRSC12291,1.39e5,1.20e5,1.18e5,84165,12155,inactive
CG34223 (GeneID 5740431),DRSC05268,1.81e5,2.30e5,2.65e5,3.14e5,24082,inactive
Atac1 (GeneID 33977),DRSC03155,2.30e5,2.12e5,2.73e5,2.09e5,10730,inactive
CG17724 (GeneID 246682),DRSC06687,1.58e5,1.59e5,1.53e5,1.50e5,14842,inactive
wbl (GeneID 37206),DRSC07718,84355,77660,97620,1.28e5,5245,inactive
CG8750 (GeneID 50285),DRSC11037,1.44e5,1.14e5,2.10e5,1.83e5,8082,inactive
CG31462 (retired record) (GeneID 326143),DRSC14359,56920,66630,69940,64570,4590,inactive
kairos (GeneID 32815),DRSC19972,91150,77675,65025,41770,7235,inactive
CG9452 (GeneID 40119),DRSC11075,1.56e5,1.13e5,85070,65330,10400,inactive
tilB (GeneID 33130),DRSC20634,84025,93820,97210,1.42e5,9665,inactive
CG4763 (GeneID 37771),DRSC04009,1.55e5,1.94e5,2.83e5,2.62e5,9210,inactive
CG4763 (GeneID 37771),DRSC04487,1.83e5,1.29e5,1.46e5,1.75e5,9765,inactive
psd (GeneID 33830),DRSC03131,88710,63680,1.02e5,85875,5232,inactive
NKCC (GeneID 40663),DRSC12140,1.57e5,1.48e5,1.45e5,1.52e5,12095,inactive
NKCC (GeneID 40663),DRSC12311,62610,78370,47690,46815,4925,inactive
